According to PMC7819943, “Rice protein-binding microarrays: a tool to detect cis-acting elements near promoter regions in rice”:
The list shows a part of the results.

Amino acid sequences for entries named in this document (tags omitted).
UniProt Q0JBA9, entry or part of it: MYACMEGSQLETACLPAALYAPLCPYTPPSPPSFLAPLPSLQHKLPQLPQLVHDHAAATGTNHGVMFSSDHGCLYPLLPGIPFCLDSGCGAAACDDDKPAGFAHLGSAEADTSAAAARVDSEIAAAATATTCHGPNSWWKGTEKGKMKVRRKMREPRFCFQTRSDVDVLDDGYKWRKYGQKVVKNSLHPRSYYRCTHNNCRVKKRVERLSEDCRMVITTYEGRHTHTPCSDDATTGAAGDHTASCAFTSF

These sequences were tested against OsWRKY34 (Oryza sativa, UniProt Q0JBA9 1-250) (assay: protein-binding microarray (RPBM); PBS, 2% BSA, 51.3 ng/ul salmon testes DNA, 50 uM zinc acetate, 200 nM TF, 25 C, 1 h; high values mean tight binding). Details: protein: recombinant; tags: N-terminal polyhistidine and DsRed monomer fusion (pET32a); label: CyDye5-dUTP incorporated in the synthesized complementary strand; 3' TTTTT single-stranded linker to array surface; dsDNA, one strand shown.
Outline: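 The binding signal is fluorescence intensity per feature, in arbitrary units, read on an Axon 4000B scanner. Polyhistidine- and DsRed-tagged transcription factors (N-terminal fusions) from E. coli BL21-CodonPlus were purified on Ni–NTA and applied at 200 nM for 1 h at 25 °C to a double-stranded, BSA-blocked custom Agilent array in buffer with 50 µM zinc acetate.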
In the case of “GGTATGAAAAATTTTCTATCCTTTCCTATTGCTTATTTTTCGGAGTCACCTAGTGCAG”, the binding signal was 9400 fluorescence intensity (a.u.). With “TGGTATAATGGTCATTTAATTGTTGACCTTGCATGTGAGGCGGAGTCACCTAGTGCAG” the binding signal was 15200 fluorescence intensity (a.u.). In the case of “GCCGACCGCTAGCCGCCCCTGTTTCGTCCGCACTGAGCTACGGAGTCACCTAGTGCAG”, the binding signal was 9910 fluorescence intensity (a.u.). “GAGCTCAACATGCGTGGGCCGCTCCTTCACCGGCTGCAGCCGGAGTCACCTAGTGCAG” was tested, and the binding signal was 8620 fluorescence intensity (a.u.). In the case of “ACTACTAGATAGTTTCTGGGTTGGGGATGGCCTAATAAATCGGAGTCACCTAGTGCAG”, the binding signal was 12900 fluorescence intensity (a.u.). “TCGCGCCGTCTACTTGTGCTAGAATTCCGACTCCATCCGCCGGAGTCACCTAGTGCAG” was tested, and the binding signal was 11500 fluorescence intensity (a.u.). For “TAGTGCTGGTTCTGATAACTTTTTGTCTGATGTCCCATCTCGGAGTCACCTAGTGCAG”, the binding signal was 9940 fluorescence intensity (a.u.). In the case of “ATCATCGATTGTTTTTTCCTTTCATTTTTAGCTGTGTAGTCGGAGTCACCTAGTGCAG”, the binding signal was 8080 fluorescence intensity (a.u.). For “TTGTTGCTTGCTTCCCTACACTTCTCTCTCTCAGCTGCTACGGAGTCACCTAGTGCAG”, the binding signal was 9260 fluorescence intensity (a.u.). In the case of “GCACTTCTCCACCTGTATCCAGTTCCAGTTATTGGCGATGCGGAGTCACCTAGTGCAG”, the binding signal was 8770 fluorescence intensity (a.u.). In the case of “GTTGTTATATGCCTTGCAGTTTGTCCAATTGAATCAGAATCGGAGTCACCTAGTGCAG”, the binding signal was 8070 fluorescence intensity (a.u.). For “ACCTGTGTAGTATTATCTATCCATTGTTGGTGTGTGTTTACGGAGTCACCTAGTGCAG”, the binding signal was 9250 fluorescence intensity (a.u.). “AAGTAGGATCCATTCCTTCTCTCCATTCCCTATATCTTCACGGAGTCACCTAGTGCAG” was tested, and the binding signal was 9080 fluorescence intensity (a.u.). With “AGGTTTTTCTAAAACCACAAATAAATTTAATTTTCTAATTCGGAGTCACCTAGTGCAG” the binding signal was 10500 fluorescence intensity (a.u.). For “AATGATTCTTGCCGGGGCGCCAGATGTCCCCAAACGTTCGCGGAGTCACCTAGTGCAG”, the binding signal was 8760 fluorescence intensity (a.u.). “TCATCATGCCATAACCAAACCTCATGTTTTTAGTGCACCACGGAGTCACCTAGTGCAG” was tested, and the binding signal was 8510 fluorescence intensity (a.u.). For “CTGTGAACCTGCTTGTGGCCCGCGGGTGGGGCGGTCGGGCCGGAGTCACCTAGTGCAG”, the binding signal was 10000 fluorescence intensity (a.u.). “TACTCTTCCATCGAACTGTTGGATGTTTCTGTCTTGACTTCGGAGTCACCTAGTGCAG” was tested, and the binding signal was 9210 fluorescence intensity (a.u.). “CGAAGATACCTCAACTTAACTTGTCATCGGGTTACAAAATCGGAGTCACCTAGTGCAG” was tested, and the binding signal was 8150 fluorescence intensity (a.u.). With “TATGTCTTATTCACTCGGCTCTAGGCATCATTGGTATTCTCGGAGTCACCTAGTGCAG” the binding signal was 9380 fluorescence intensity (a.u.). In the case of “CATCTATTTTTCCTCCCTATTTTTTGTGATGTGCCTTACACGGAGTCACCTAGTGCAG”, the binding signal was 11600 fluorescence intensity (a.u.). In the case of “GTAATCGCGTTCGTCATCATCTATCTCCTCCACCGCCTGACGGAGTCACCTAGTGCAG”, the binding signal was 10100 fluorescence intensity (a.u.). “CTGTATTTTTCCTATGTTTTGCAATCCTCTGGTTTACAATCGGAGTCACCTAGTGCAG” was tested, and the binding signal was 10400 fluorescence intensity (a.u.). For “AAAATCTCTCTCTCTCTCTCTCTCTCACACAGCCTCACAGCGGAGTCACCTAGTGCAG”, the binding signal was 8560 fluorescence intensity (a.u.). For “CTACCTTGCATCCGTCGCCTGCTCCGCCTCACCATGCCGACGGAGTCACCTAGTGCAG”, the binding signal was 8760 fluorescence intensity (a.u.). “AATAGATAATGCCGTTGTCACATGTTTAACCATCCGTCTTCGGAGTCACCTAGTGCAG” was tested, and the binding signal was 9510 fluorescence intensity (a.u.). For “TTTCAGCTTTTTCATCTTCACTCATCACTAATATATATATCGGAGTCACCTAGTGCAG”, the binding signal was 8420 fluorescence intensity (a.u.). For “GGGTGGGGAAGAAGAGGGGAAGCGGGGAGGAGGAGAGGGACGGAGTCACCTAGTGCAG”, the binding signal was 9680 fluorescence intensity (a.u.). With “CTTGCCGCTTCTCTCTTCTTCTTCTTCTTGCAGCGGCCGTCGGAGTCACCTAGTGCAG” the binding signal was 8520 fluorescence intensity (a.u.). With “TCCCGAGCAATTTCACCCTAGCCTAGCCGCCGCCTTTATACGGAGTCACCTAGTGCAG” the binding signal was 11800 fluorescence intensity (a.u.). “GCTCGTGTTCTTTGCTTCTCCGATCGCCTCCGCGAGTAGGCGGAGTCACCTAGTGCAG” was tested, and the binding signal was 9200 fluorescence intensity (a.u.). With “CACTCCACTGACATTTCAGTAGTCCACTGCCGTTTTCGCACGGAGTCACCTAGTGCAG” the binding signal was 8080 fluorescence intensity (a.u.). For “CGAGAACGTTAATTGTCATAGCATCGCCCAGCTTTTTTTCCGGAGTCACCTAGTGCAG”, the binding signal was 8280 fluorescence intensity (a.u.). In the case of “ACCTCTCCGGTCATAAGTGCATGTCGTTTGATTTCGTTTCCGGAGTCACCTAGTGCAG”, the binding signal was 11900 fluorescence intensity (a.u.). For “CGCCCGCAACCACCCGTCCGCATCCGTCGCCTCACGCCTTCGGAGTCACCTAGTGCAG”, the binding signal was 12600 fluorescence intensity (a.u.). In the case of “TTTATCTCTACTTTCCAACTCATCTCCTCCGTTTTCCGCGCGGAGTCACCTAGTGCAG”, the binding signal was 8130 fluorescence intensity (a.u.). For “ACCTTCGGTGTACTTTTTCCTTAGTCTGCCGGCTTATTTACGGAGTCACCTAGTGCAG”, the binding signal was 9490 fluorescence intensity (a.u.). With “TTCTTTTCTTTTTTTCTTTGCGGGGATTTCATATAGGATTCGGAGTCACCTAGTGCAG” the binding signal was 8510 fluorescence intensity (a.u.). In the case of “ACTTTCGGTCTAATCCTGACACATGCACCATGTACATCTGCGGAGTCACCTAGTGCAG”, the binding signal was 8080 fluorescence intensity (a.u.). “GGCTCACCTGCATTGTCTACTACGTCGTGTTCGCGCAGACCGGAGTCACCTAGTGCAG” was tested, and the binding signal was 10200 fluorescence intensity (a.u.). In the case of “GCCGCCGTAGTTTTCTAAGCTTCAGCCTTTTATTTTGCTTCGGAGTCACCTAGTGCAG”, the binding signal was 9520 fluorescence intensity (a.u.). For “TCTAAACTGGTTTATTATCACCCGTCACGGATAACTATTACGGAGTCACCTAGTGCAG”, the binding signal was 8850 fluorescence intensity (a.u.). For “TCTGTGTTGGCGAGAGTTGGTGTCTGGAATTGGGCTTGGTCGGAGTCACCTAGTGCAG”, the binding signal was 9200 fluorescence intensity (a.u.). For “TTCTTGCCGGAGGAGGGGCAGGGGAGGGAGCCGGGCGGGACGGAGTCACCTAGTGCAG”, the binding signal was 23500 fluorescence intensity (a.u.). “GGGATGGGTAGGGGTGGGTTGTGCTGTATTATACTACACCCGGAGTCACCTAGTGCAG” was tested, and the binding signal was 19200 fluorescence intensity (a.u.). In the case of “CACACAACTCATGTCTATCAATCATTGCATCCCAACTTGCCGGAGTCACCTAGTGCAG”, the binding signal was 8480 fluorescence intensity (a.u.). “GCCATTGTACCCCACCCTTCTCTCGATTGCTCTTCCCCTGCGGAGTCACCTAGTGCAG” was tested, and the binding signal was 8380 fluorescence intensity (a.u.). In the case of “AGTGGCGGGTTTTACAACTTCGGTGTGCATGCATAAATCTCGGAGTCACCTAGTGCAG”, the binding signal was 12300 fluorescence intensity (a.u.). With “ATTTTCTTTGAATGCCTCTTAGCCCATTTAGTTTGGTCCACGGAGTCACCTAGTGCAG” the binding signal was 8920 fluorescence intensity (a.u.). With “CCTCCTCATTCGCGATCTCTCTCTCTCTCTTTCTTTCGTCCGGAGTCACCTAGTGCAG” the binding signal was 8090 fluorescence intensity (a.u.). With “TTCGGGCCCCTGAATTGTTAGGTAATAACCCTACATCCTGCGGAGTCACCTAGTGCAG” the binding signal was 13500 fluorescence intensity (a.u.). “TCCCCTTCAGACATCTTCCCCATCCTCGCCTGCTTCAGTCCGGAGTCACCTAGTGCAG” was tested, and the binding signal was 8160 fluorescence intensity (a.u.). In the case of “GGTGGGTTGGGCCGTGATTTGTATGGACTTTATTTGTAAGCGGAGTCACCTAGTGCAG”, the binding signal was 19000 fluorescence intensity (a.u.). With “CAGTACTGCAGATAATCTCCACTGACCTTCGTACATATTACGGAGTCACCTAGTGCAG” the binding signal was 8180 fluorescence intensity (a.u.).
